Measured values as given in patent publication US20200155607A1, “Enriched Cellular Compositions and Therapeutic Use” (Abraham J and Phyllis Katz Cord Blood Foundation, priority 2017, published 2020).
For at least one compound, name, drawing or mass did not settle the structure.

Assays:
UCB monocytes = experiment: TNF-α production by UCB monocytes in response to LPS and P. aeruginosa (ELISA); format: cell-based; details: UCB monocytes and PRP cultured with or without DFO 24 hrs, FIG. 8A
adult monocytes [1] = experiment: TNF-α production by adult blood monocytes in response to LPS and P. aeruginosa (ELISA); format: cell-based; details: adult blood monocytes and PRP cultured with or without DFO 24 hrs, FIG. 8B
adult monocytes [2] = experiment: Nitrite (NO) production by adult monocytes in response to LPS and P. aeruginosa (Greiss assay); format: cell-based; details: adult monocytes and PRP, with or without DFO 24 hrs; FIG. 9B
HDFs = experiment: Fibroblast wound scratch assay; format: cell-based, human; details: after 24 hrs by microscopy

CC(=O)N(O)CCCCCNC(=O)CCC(=O)N(O)CCCCCNC(=O)CCC(=O)N(O)CCCCCN [DFO, deferoxamine]
TNF-α response to LPS (UCB monocytes; then LPS 24 hrs): enhanced the TNF-α response to LPS | TNF-α response to P. aeruginosa (UCB monocytes; then P. aeruginosa 10^6-10^8 CFU/ml 24 hrs): dampened the TNF-α response to P. aeruginosa | TNF-α response to LPS (adult monocytes [1]; then LPS 24 hrs): enhanced the TNF-α response to LPS | TNF-α response to P. aeruginosa (adult monocytes [1]; then P. aeruginosa 24 hrs): dampened the TNF-α response to P. aeruginosa | impact of DFO incubation on NO responses to LPS or P. aeruginosa (adult monocytes [2]): does not seem to impact NO responses | migration of fibroblasts into the scratch (HDFs): enhanced fibroblast migration
